Primary screen of a compound library

Amino acid sequences for entries named in this document (tags omitted).
UniProt E9BF75, entry or part of it: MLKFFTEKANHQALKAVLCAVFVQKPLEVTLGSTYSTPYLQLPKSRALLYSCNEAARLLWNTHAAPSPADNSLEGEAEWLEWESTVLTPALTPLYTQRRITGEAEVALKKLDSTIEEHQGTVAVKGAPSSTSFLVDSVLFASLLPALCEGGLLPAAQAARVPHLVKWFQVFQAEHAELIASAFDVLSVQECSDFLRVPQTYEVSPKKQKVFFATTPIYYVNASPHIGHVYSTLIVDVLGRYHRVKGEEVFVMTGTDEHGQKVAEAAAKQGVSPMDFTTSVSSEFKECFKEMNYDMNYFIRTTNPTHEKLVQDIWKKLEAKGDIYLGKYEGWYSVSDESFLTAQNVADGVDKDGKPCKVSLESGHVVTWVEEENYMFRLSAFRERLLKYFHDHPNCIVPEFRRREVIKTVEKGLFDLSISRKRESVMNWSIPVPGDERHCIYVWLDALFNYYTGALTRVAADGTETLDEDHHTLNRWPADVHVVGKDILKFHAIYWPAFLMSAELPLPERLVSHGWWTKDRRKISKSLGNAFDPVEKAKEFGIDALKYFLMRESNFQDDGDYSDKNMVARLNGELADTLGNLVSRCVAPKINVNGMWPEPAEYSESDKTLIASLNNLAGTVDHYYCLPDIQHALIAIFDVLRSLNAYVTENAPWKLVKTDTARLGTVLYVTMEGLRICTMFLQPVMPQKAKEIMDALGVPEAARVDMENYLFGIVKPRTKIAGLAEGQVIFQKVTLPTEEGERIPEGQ

Measurements from “University of Dundee, Small-Polar-MMV Screening Library” (2021), ChEMBL document CHEMBL3988442.

All values are in %. The controls that fix the scale are not given in the record; negative values are as filed. This is an unselected part of the compounds tested.

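Primary screen of methionyl-tRNA synthetase; the read-out is not stated. Target: Methionyl-tRNA synthetase (putative), Leishmania donovani (UniProt E9BF75). The test concentration is not given. Values are per cent inhibition. Size under these conditions: about 68,000 compounds, about 24 of them at 50% or above in at least one test.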

Compound,Inhibition
COc1ccc2cnn(CC(=O)NC3CCCCC3)c(=O)c2c1OC,19.41%
CC(Cn1cccn1)NC(=O)N1CCCN(Cc2cccs2)CC1 (centres unmarked),20.55%
Cc1ccccc1CC(=O)NCc1cnc(CC2CCN(C)CC2)cn1,13.37%
CC(C)(C)C(C#N)NC(=O)c1ccc(Oc2cccnc2)cc1 (centres unmarked),11.5%
O=C(c1ccco1)N1C[C@@H]2[C@@H](C1)OCC(=O)N2Cc1cccnc1,6.383%
Cc1cc(CN2CCC(CNC(=O)c3nccc4ccccc34)C2)[nH]n1 (centres unmarked),13.75%
CCCNC(=O)C(C)n1nc(-c2ccc(C)o2)cc(N)c1=O (centres unmarked),19.81%
O=C1CC(c2ccccc2F)c2c(n(C3CCCC3)[nH]c2=O)N1 (centres unmarked),5.075%
CCC(C)(NCC(=O)Nc1nc(C)cs1)c1nc(C)cs1 (centres unmarked),8.55%
COc1ccc(CN2CCc3ncnc(OC(C)C)c3CC2)cc1,3.766%
CC(=O)N1CCC(CSCc2ccco2)CC1,2.174%
CCCNC(=O)c1ccc(NC(=O)NC(C)c2ccccn2)cc1 (centres unmarked),8.696%
O=C(NCC1CCCO1)N1CCN(Cc2ccc3c(c2)CCO3)CC1 (centres unmarked),17.14%
CCc1nc(NS(=O)(=O)c2cc(C)ccc2Br)no1,13.64%
Cc1noc(C)c1CC(=O)N1CC[C@@](C)(O)[C@H](Oc2ccccc2)C1,13.44%
CNC(=O)c1cccc(CNC2CCCSc3ccccc32)c1 (centres unmarked),7.33%
N#Cc1ccc(CN2CCCC2Cn2cccn2)cc1 (centres unmarked),25.7%
Cc1cnccc1N1CCN(C(=O)C2CC3(CCNCC3)CN2)CC1 (centres unmarked),11.56%
Cc1noc(C)c1CN1CCn2cc(CNC(=O)C3CCC3)nc2C1,13.33%
Cc1noc(C)c1CNS(=O)(=O)N(C)Cc1ccc(Cl)cc1,15.32%
O=C(Cc1csc(N2CCNC2=O)n1)NC1(c2ccccc2)CCC1,15.73%
Cc1nccn1C1CCCN(C(=O)c2cccc(S(C)(=O)=O)c2)C1 (centres unmarked),12.5%
CCC1=N[C@@]2(CC[C@@H]3CN(CC(=O)N(C)C)C[C@@H]32)C(=O)N1CC(C)C,16.43%
O=C1CCc2cc(S(=O)(=O)NC(=O)c3ccc4c(c3)CCO4)ccc2N1,14.12%
CN(Cc1cn(C2CCNCC2)nn1)CC1CCCO1 (centres unmarked),9.214%
CC(NC1(CNC(=O)CC(C)(C)C)CCOCC1)c1ccccc1 (centres unmarked),16.73%
CS(=O)(=O)N1Cc2nccn2CC(Cn2ncccc2=O)C1 (centres unmarked),13.81%
CCN1CCO[C@]2(CCC[C@H]2COCc2csc(C)n2)C1,14.16%
O=C(CCc1cscn1)N1CCCC(n2cncn2)C1 (centres unmarked),6.647%
CC(=O)N1CCOC(Cc2cccc(C(F)(F)F)c2)C1 (centres unmarked),8.219%
Cc1ccc(C(=O)N2Cc3ccccc3C2)cc1N1CCNC1=O,15.61%
O=C(CCC1CCCO1)NCCN1CCCCC1 (centres unmarked),2.736%
CN1CCN(C[C@@H]2CN(C3Cc4ccccc4C3)C[C@@H]2CO)CC1,4.569%
CCC(C)(CC(=O)O)NC(=O)Cc1ccccc1F (centres unmarked),7.453%
O=C(CC1CCCO1)N1CCCN(c2cccnn2)CC1 (centres unmarked),20%
CCN1CCn2nc(CCC(=O)N3CCCC3)cc2C1,7.407%
CCN1CCN(S(=O)(=O)N2CCc3ccccc3C2)[C@H]2CS(=O)(=O)C[C@H]21,11.62%
CN(C)CCn1ccnc1C1CCN(C(=O)CCc2ccncc2)CC1,17.83%
Cc1cc(CNCC2(O)CCCN(CCCc3ccccc3)C2=O)n[nH]1 (centres unmarked),9.253%
CC(C)(C)CNC[C@H]1Cn2c(-c3ccccc3)cnc2CO1,1.017%
COc1cccc(N2CCN(CC(O)c3cc(C)ccc3C)CC2)c1 (centres unmarked),2.817%
Cc1nc(C(C)C)ncc1C(=O)N1CCc2c(nc(N(C)C)[nH]c2=O)C1,7.949%
CSCC(=O)N[C@H]1CC[C@H](Nc2nccc(-c3ccncc3)n2)C1,1.437%
Cn1ccc(C(=O)Nc2cc(F)ccc2OCC2CCCO2)cc1=O (centres unmarked),16.48%
CCC(=O)N1CCCC1c1nccnc1Nc1ncccn1 (centres unmarked),7.192%
COCC(O)CN1CCC(NC(=O)c2cscc2C)CC1 (centres unmarked),4.01%
Cc1nn(C)c(Cl)c1C1CCCN1CCc1ccccn1 (centres unmarked),10.42%
COCCOC[C@]1(CNCc2cccc(OC)c2)C[C@@H](O)[C@@H](O)C1,13.74%
COc1cc(CNCC(O)c2ccc(C)cc2)cc2c1OCCO2 (centres unmarked),16.83%
CC(=O)NCCCc1ncnn1-c1cccc(Cl)c1,8.505%
CN(C)c1ccccc1C(=O)N1C[C@@H](CN2CCC(O)CC2)[C@@H](CO)C1,10.03%
O=C(N1CCOCC1)[C@@]12CCO[C@@H]1CCN(CC1CCC1)C2,15.27%
CSC(C)C(=O)NCc1ccc(-n2cncn2)nc1 (centres unmarked),6.529%
Cc1ccc(CCNC(=O)NC2CCN(CC(F)(F)F)C2=O)cn1 (centres unmarked),11.23%
CCOCC(=O)NCCc1nc(C)cc(C(F)(F)F)n1,20.87%
CN1C(=O)CC(c2cnn(C)c2)C12CCN(C(=O)c1cccn1C)CC2 (centres unmarked),8%
Nc1nc(N)c2c(n1)OC1(CCN(C(=O)CC3CCCCN3)CC1)C2 (centres unmarked),11.84%
O=C(c1cc(C2CCCN(Cc3ccccn3)C2)no1)N1CCCC1 (centres unmarked),15.48%
Cc1ncncc1C(=O)N1CCCC(c2[nH]ncc2S(C)(=O)=O)C1 (centres unmarked),8.235%
COCCN(c1cc(C)nc2nc(C(F)(F)F)nn12)C1CCCC1,2.29%
CN(C)c1cccc(C(=O)N2CCC(c3n[nH]c(C4CC4)n3)CC2)c1,19.2%
CCc1noc(C(C)N2CCC(C(=O)Nc3cnn(CC)c3)CC2)n1 (centres unmarked),-2.083%
CCc1ccc(S(=O)(=O)Nc2cnccc2C)s1,20.53%
CC(=O)Nn1ccc2c(nnc3c(-c4ccccc4)cnn32)c1=O,6.811%
CCOCCNC(=O)c1cccc(S(=O)(=O)NC[C@@H]2C[C@H](F)CN2)c1,6.529%

The last 7 entries again:

Compound	Inhibition
Cc1ncncc1C(=O)N1CCCC(c2[nH]ncc2S(C)(=O)=O)C1 (centres unmarked)	8.235%
COCCN(c1cc(C)nc2nc(C(F)(F)F)nn12)C1CCCC1	2.29%
CN(C)c1cccc(C(=O)N2CCC(c3n[nH]c(C4CC4)n3)CC2)c1	19.2%
CCc1noc(C(C)N2CCC(C(=O)Nc3cnn(CC)c3)CC2)n1 (centres unmarked)	-2.083%
CCc1ccc(S(=O)(=O)Nc2cnccc2C)s1	20.53%
CC(=O)Nn1ccc2c(nnc3c(-c4ccccc4)cnn32)c1=O	6.811%
CCOCCNC(=O)c1cccc(S(=O)(=O)NC[C@@H]2C[C@H](F)CN2)c1	6.529%